{"source": "PubChem BioAssay AID1259254 (NCATS, 2017)", "assay": "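Gene knock-downs that lead to re-replication, shown by excess G2 DNA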 (primary screen)", "cell system": "human HCT116 colorectal cancer cells", "reagent": "single siRNA against human genes", "time to read-out": "3 days", "measured": "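Imaged Hoechst DNA stain sorts each cell into a cycle phase by DNA amount; per plate, G2 fraction set to 0% for non-targeting and 100% for GMNN siRNA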", "direction": "G2 robust z-score: higher = more G2 cells, more excess DNA replication", "active means": "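An siRNA counts as active if its G2 robust z-score lies at least 5 MADs above the screen median; here such calls match roughly 38% of GMNN control or more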", "note": "Here is a random part of about 59,000 reagents tested. Of all reagents, about 1,550 (2.6%) are marked active. 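G2 share is only a proxy for re-replication; each gene was hit by three separate siRNAs, and active genes were retested.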 Further read-outs or replicates are left out here. Not stated in the record: the amount of reagent."}
{"gene":"TRAPPC2 (trafficking protein particle complex subunit 2)","PubChem SID":"SID160716544","G2 robust z-score":4.55,"Call":"inactive"}
{"gene":"TRAPPC2 (trafficking protein particle complex subunit 2)","PubChem SID":"SID160716545","G2 robust z-score":-1.18,"Call":"inactive"}
{"gene":"TRAPPC2 (trafficking protein particle complex subunit 2)","PubChem SID":"SID160733741","G2 robust z-score":-0.395,"Call":"inactive"}
{"gene":"PCDHA2 (protocadherin alpha 2)","PubChem SID":"SID160744886","G2 robust z-score":-1.07,"Call":"inactive"}
{"gene":"PCDHA2 (protocadherin alpha 2)","PubChem SID":"SID160744887","G2 robust z-score":-0.848,"Call":"inactive"}
{"gene":"PCDHA2 (protocadherin alpha 2)","PubChem SID":"SID160744888","G2 robust z-score":1.54,"Call":"inactive"}

Quoted from the entries so far for reference:
{"gene":"TRAPPC2 (trafficking protein particle complex subunit 2)","PubChem SID":"SID160716545","G2 robust z-score":-1.18,"Call":"inactive"}
{"gene":"TRAPPC2 (trafficking protein particle complex subunit 2)","PubChem SID":"SID160733741","G2 robust z-score":-0.395,"Call":"inactive"}

More reagents follow.
{"gene":"RHOV (ras homolog family member V)","PubChem SID":"SID160760505","G2 robust z-score":1.72,"Call":"inactive"}
{"gene":"RHOV (ras homolog family member V)","PubChem SID":"SID160760506","G2 robust z-score":0.177,"Call":"inactive"}
{"gene":"RHOV (ras homolog family member V)","PubChem SID":"SID160760507","G2 robust z-score":-1.05,"Call":"inactive"}
{"gene":"FASTKD4 (FASTK mitochondrial RNA regulator 4)","PubChem SID":"SID160721785","G2 robust z-score":-0.647,"Call":"inactive"}
{"gene":"FASTKD4 (FASTK mitochondrial RNA regulator 4)","PubChem SID":"SID160721786","G2 robust z-score":-0.393,"Call":"inactive"}
{"gene":"FASTKD4 (FASTK mitochondrial RNA regulator 4)","PubChem SID":"SID160721787","G2 robust z-score":-0.389,"Call":"inactive"}
